Results are given in words; binding and its absence hold for the method and conditions named. Binding can be weak; no strength is given. Where a sequence is shown, tags or fusion partners need not be part of it.
Key:
Sx1_(1-261)-His (rat) = experiment: pull-down; His-tagged Syntaxin incubated with detagged Munc18 (1:2 molar ratio) for 2 h, 24 h and 48 h at 4°C, then TALON Co2+ resin 1 h at 4°C; washed with 25 mM TrisHCl pH 7.5, 150 mM NaCl, 10% glycerol, 0.1% Triton-X 100, 15 mM imidazole, 2 mM β-ME; SDS-PAGE, Coomassie Blue; both purified
ΔNSx1_(25-261)-His (rat) = experiment: as above

B1: detagged Munc18c (protein, UniProt Q60770 1-592)
chain: MAPPVSERGLKSVVWRKIKTAVFDDCRKEGEWKIMLLDEFTTKLLSSCCKMTDLLEEGITVIENIYKNREPVRQMKALYFISPTPKSVDCFLRDFGSKSEKKYKAAYIYFTDFCPDSLFNKIKASCSKSIRRCKEINISFIPQESQVYTLDVPDAFYYCYSPDPSNASRKEVVMEAMAEQIVTVCATLDENPGVRYKSKPLDNASKLAQLVEKKLEDYYKIDEKGLIKGKTQSQLLIIDRGFDPVSTVLHELTFQAMAYDLLPIENDTYKYKTDGKEKEAVLEEDDDLWVRVRHRHIAVVLEEIPKLMKEISSTKKATEGKTSLSALTQLMKKMPHFRKQISKQVVHLNLAEDCMNKFKLNIEKLCKTEQDLALGTDAEGQRVKDSMLVLLPVLLNKNHDNCDKIRAVLLYIFGINGTTEENLDRLIHNVKIEDDSDMIRNWSHLGVPIVPPSQQAKPLRKDRSAEETFQLSRWTPFIKDIMEDAIDNRLDSKEWPYCSRCPAVWNGSGAVSARQKPRTNYLELDRKNGSRLIIFVIGGITYSEMRCAYEVSQAHKSCEVIIGSTHILTPRKLLDDIKMLNKSKDKVSFKDE
binding (Sx1_(1-261)-His (rat)): binds
binding (ΔNSx1_(25-261)-His (rat)): binds weakly

Source: article PMC5663490 (PLoS ONE, 2017)
